# These are yes or no findings as the source states them, for the method shown. Binding seen in cells or lysates may run through a third protein. Here binding means that the protein was enriched with, or labelled near, the bait; the list need not be complete.
# Protein sequences, listed by entry. Tags and fused reporters are not part of them.
# UniProt O17921: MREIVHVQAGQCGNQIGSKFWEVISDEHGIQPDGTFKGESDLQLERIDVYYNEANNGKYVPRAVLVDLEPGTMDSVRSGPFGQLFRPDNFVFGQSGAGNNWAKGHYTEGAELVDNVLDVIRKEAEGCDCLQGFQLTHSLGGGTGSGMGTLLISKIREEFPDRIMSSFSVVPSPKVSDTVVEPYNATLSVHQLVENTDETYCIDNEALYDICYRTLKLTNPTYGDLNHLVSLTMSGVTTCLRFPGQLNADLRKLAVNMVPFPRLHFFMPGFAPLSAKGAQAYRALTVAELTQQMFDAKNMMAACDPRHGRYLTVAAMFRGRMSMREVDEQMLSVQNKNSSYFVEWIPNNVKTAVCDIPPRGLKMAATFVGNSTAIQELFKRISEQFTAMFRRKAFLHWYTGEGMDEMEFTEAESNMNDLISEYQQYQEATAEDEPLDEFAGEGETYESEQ
# UniProt P41937: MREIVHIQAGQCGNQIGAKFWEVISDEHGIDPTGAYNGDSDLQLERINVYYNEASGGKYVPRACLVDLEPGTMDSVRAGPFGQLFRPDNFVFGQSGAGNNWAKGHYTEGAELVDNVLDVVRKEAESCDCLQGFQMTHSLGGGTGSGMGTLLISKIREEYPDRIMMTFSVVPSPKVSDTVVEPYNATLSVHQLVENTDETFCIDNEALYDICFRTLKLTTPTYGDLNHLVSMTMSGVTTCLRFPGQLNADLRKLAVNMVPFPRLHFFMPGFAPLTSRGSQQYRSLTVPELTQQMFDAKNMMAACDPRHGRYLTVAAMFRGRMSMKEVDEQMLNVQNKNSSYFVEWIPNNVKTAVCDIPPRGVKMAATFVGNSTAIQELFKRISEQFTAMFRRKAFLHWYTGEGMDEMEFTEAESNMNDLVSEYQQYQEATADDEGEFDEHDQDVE
# T1: DYN-1/Dynamin (C. elegans) (C. elegans (endogenous in worms)) (UniProt P39055)
# T1 sequence: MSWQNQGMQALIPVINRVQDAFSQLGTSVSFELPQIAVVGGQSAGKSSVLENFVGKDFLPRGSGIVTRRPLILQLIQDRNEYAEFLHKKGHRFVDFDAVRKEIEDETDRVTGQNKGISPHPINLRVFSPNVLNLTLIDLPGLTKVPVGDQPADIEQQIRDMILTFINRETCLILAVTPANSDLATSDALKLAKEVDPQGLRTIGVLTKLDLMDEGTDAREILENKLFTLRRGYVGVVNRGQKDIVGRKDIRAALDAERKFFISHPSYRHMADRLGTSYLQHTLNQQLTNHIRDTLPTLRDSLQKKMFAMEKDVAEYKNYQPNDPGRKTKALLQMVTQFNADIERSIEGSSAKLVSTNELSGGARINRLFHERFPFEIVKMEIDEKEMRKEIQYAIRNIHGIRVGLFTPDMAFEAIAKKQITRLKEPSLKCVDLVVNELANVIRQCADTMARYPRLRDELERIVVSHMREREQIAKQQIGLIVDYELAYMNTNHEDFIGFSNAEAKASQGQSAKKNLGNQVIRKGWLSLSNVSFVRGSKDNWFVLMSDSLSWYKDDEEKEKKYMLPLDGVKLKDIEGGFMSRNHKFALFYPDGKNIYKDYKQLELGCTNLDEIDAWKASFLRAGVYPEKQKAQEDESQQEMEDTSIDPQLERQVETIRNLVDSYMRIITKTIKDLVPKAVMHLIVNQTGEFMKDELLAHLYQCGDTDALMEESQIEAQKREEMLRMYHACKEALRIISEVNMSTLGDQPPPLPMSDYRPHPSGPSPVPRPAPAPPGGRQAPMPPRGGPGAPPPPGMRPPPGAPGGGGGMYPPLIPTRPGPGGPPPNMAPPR
# B1: Nucleoside diphosphate kinase (C. elegans) NDK-1 (protein, UniProt Q93576 1-153)
# chain: MSNTERTFIAIKPDGVHRGLVGKIIARFEERGYKLVALKQMTASKAHLEVHYQDLKDKPFFPSLIEYMSSGPVVAMVWQGLDVVKQGRSMLGATNPLASAPGTIRGDFCIQTGRNICHGSDAVDSANREIAHWFKQEEINDYASPFINSWVYE
# Target: T1, DYN-1/Dynamin (C. elegans) (C. elegans (endogenous in worms))
# Assay: affinity purification with mass spectrometry; wild-type mixed-stage worm lysate in NETN (50 mM Tris pH 7.5, 150 mM NaCl, 1 mM EDTA, 0.5% NP-40); IP with affinity-purified polyclonal anti-DYN-1, protein A agarose, 4°C; control IP with polyclonal anti-CED-2; LC-MS/MS
row,binding,Molecule
1,binds,Tubulin β-chain (C. elegans) (from UniProt O17921 1-449)
2,binds,Tubulin β-4 chain (C. elegans) (from UniProt P41937 1-444)
3,binds,Tubulin β-2 chain (C. elegans) (from UniProt P52275 1-450)
4,binds,B1

# Source: article PMC6819981
